Reference: paper PMC3929664, “A Panel of Diverse Assays to Interrogate the Interaction between Glucokinase and Glucokinase Regulatory Protein, Two Vital Proteins in Human Disease” (PLoS ONE, 2014)
Like-named read-outs stand apart in the source and are kept apart here.

How the values were obtained:
[1] = system: cryopreserved pooled male Sprague-Dawley rat hepatocytes; experiment: GCK translocation in cryopreserved rat hepatocytes (high-content imaging); format: cell-based; conditions: 2.5 mM glucose, 31.6 µM GKA, 2 hours
[2] = system: cryopreserved human hepatocytes; experiment: GCK translocation in cryopreserved human hepatocytes (GKRP-positive cells); format: cell-based; conditions: for EC50: Homo sapiens, Hepatocyte

Structure (SMILES): Cc1csc(NC(=O)c2cc(Sc3nncn3C)ccc2N)n1 [GKA-EMD, 2-Amino-5-(4-methyl-4H-(1,2,4)-triazole-3-yl-sulfanyl)-N-(4-methyl-thiazole-2-yl)benzamide]
- GCK translocation [1]: 83%
- EC50 ([2]; read-out: EC50 of GCK translocation, lot FOS, 2.5 mM glucose, mean ± SD): 3.4 ± 2 µM
- EC50 ([2]; read-out: EC50 of GCK translocation, lot FOS, 8.9 mM glucose, mean ± SD): 3.2 ± 1.4 µM
- EC50 ([2]; read-out: EC50 of GCK translocation, lot FOS, 16.8 mM glucose, mean ± SD): 1.7 ± 0.9 µM
- GCK translocation response ([2]; lot FOS): approximately two-fold at maximum
- GCK translocation response ([2]; lot TRZ, 2.5 mM glucose): approximately 4.5 fold
